{"sequences": {"note": "Amino acid sequences for entries named in this document (tags omitted). A change or cut given only in a name is not applied to a line headed by its entry.", "UniProt Q8S307": "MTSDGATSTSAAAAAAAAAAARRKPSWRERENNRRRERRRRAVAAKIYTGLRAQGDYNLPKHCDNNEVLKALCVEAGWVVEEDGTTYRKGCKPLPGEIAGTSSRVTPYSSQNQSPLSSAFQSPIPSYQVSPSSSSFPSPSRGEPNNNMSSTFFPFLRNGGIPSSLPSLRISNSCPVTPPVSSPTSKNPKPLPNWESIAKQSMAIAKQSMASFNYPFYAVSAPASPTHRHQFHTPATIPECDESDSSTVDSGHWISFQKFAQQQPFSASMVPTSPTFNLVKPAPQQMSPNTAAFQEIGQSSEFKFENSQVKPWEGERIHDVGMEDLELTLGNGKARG"}, "source": "paper PMC10333506", "key": {"MBP-BZR1 [1]": {"biological_target": "MBP-BZR1 (UniProt Q8S307)", "assay": "competition EMSA", "settings": "EMSA as described by Zhao et al. (2021), recombinant protein, protein details: MBP"}, "MBP-BZR1 [2]": {"biological_target": "MBP-BZR1 (UniProt Q8S307)", "assay": "EMSA", "settings": "EMSA as described by Zhao et al. (2021); recombinant protein; protein details: MBP; label: 5' biotin on both strands"}}, "note": "For at least one entry, the source does not settle the construct or the ends of the probe. For part of these data: A weaker result is weaker than the reference pair of the same experiment."}
{"sequence": "AATTACGTCAATCGTGTGCACCTTTCTTTA (double strand) [BRRE Probe, unlabeled (PLT1 promoter)]", "values": [{"measurement": "binding result", "setting": "MBP-BZR1 [1]; unlabeled competitor against biotin BRRE probe, binding weakened with increasing competitor", "result": "binds"}]}
{"sequence": "AATTACGTCAATAAAAAACACCTTTCTTTA (double strand) [m-Probe (BRRE to AAAAAA), unlabeled]", "values": [{"measurement": "binding result", "setting": "MBP-BZR1 [1]; unlabeled mutant competitor against biotin BRRE probe, significantly reduced ability to compete", "result": "binds more weakly"}]}
{"sequence": "AATTACGTCAATCGTGTGCACCTTTCTTTA (double strand) [BRRE Biotin Probe (PLT1 promoter)]", "values": [{"measurement": "binding result", "setting": "MBP-BZR1 [2]", "result": "binds"}]}
